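A panel of P. falciparum strains inside erythrocytes is exposed to compounds for three days, then a DNA-binding dye reports the amount of parasite DNA. Each compound was titrated across a series from about 0.000037 to 29 µM. The number is the fitted AC50, the concentration giving a half-maximal change in signal; a lower value means higher potency, whether the curve shows a decrease or an increase. Calls follow the curve class and fit quality: every row here is inconclusive, covering signal-raising curves and weak, poorly fitted, partial or highest-dose-only inhibition curves.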

Values are in µM. Every entry below has the call inconclusive. These entries are mostly ones the record files as inconclusive; other results of the assay are not listed here. Potencies fitted to partial, single-point or poorly fitting curves are rough. Some entries filed as inconclusive have a full curve. The first word of each remark tells which way the curve ran; it can be opposite to the aim of the assay.

compound,setting,potency (µM),remark
NC(=Nc1ccccc1)Nc1ccccc1,7G8,17.78,"inhibitor, single point"
NC(=Nc1ccccc1)Nc1ccccc1,CP297,19.01,"inhibitor, single point"
NC(=Nc1ccccc1)Nc1ccccc1,DIV14,13.46,"inhibitor, single point"
CC(=O)Oc1ccc(C(c2ccc(OC(C)=O)cc2)c2ccccn2)cc1,JCK,28.18,"inhibitor, partial curve, poor fit"
CC(=O)Oc1ccc(C(c2ccc(OC(C)=O)cc2)c2ccccn2)cc1,CP291,16.94,"inhibitor, partial curve, poor fit"
CC(C)N=C(N)/N=C(\N)Nc1ccc(Cl)cc1,TAB165,1.122,"inhibitor, partial curve"
CC(C)N=C(N)/N=C(\N)Nc1ccc(Cl)cc1,DIV30,2.558,"inhibitor, partial curve"
CC(C)N=C(N)/N=C(\N)Nc1ccc(Cl)cc1,CP252,2.818,"inhibitor, partial curve"
CC(C)N=C(N)/N=C(\N)Nc1ccc(Cl)cc1,CP201,1.018,"inhibitor, partial curve"
CC(C)N=C(N)/N=C(\N)Nc1ccc(Cl)cc1,CP269,2.558,"inhibitor, partial curve"
CC(C)N=C(N)/N=C(\N)Nc1ccc(Cl)cc1,FAB9,0.7079,"inhibitor, partial curve"
CC[C@]1(O)CC2CN(CCc3c([nH]c4ccccc34)[C@@](C(=O)OC)(c3cc4c(cc3OC)N(C)[C@H]3[C@@](O)(C(=O)OC)[C@H](OC(C)=O)[C@]5(CC)C=CCN6CC[C@]43[C@@H]65)C2)C1 (stereo partly specified),PC49,8.912,"inhibitor, single point"
Cc1c(N(C)CS(=O)(=O)O)c(=O)n(-c2ccccc2)n1C,CP215,6.424,"inhibitor, single point"
CC1=C(/C=C/C(C)=C/C=C/C(C)=C/C(=O)Nc2ccc(O)cc2)C(C)(C)CCC1,CP286,17.78,"inhibitor, single point"
CC1=C(/C=C/C(C)=C/C=C/C(C)=C/C(=O)Nc2ccc(O)cc2)C(C)(C)CCC1,CP217,10,"inhibitor, single point"
CC1=C(/C=C/C(C)=C/C=C/C(C)=C/C(=O)Nc2ccc(O)cc2)C(C)(C)CCC1,CP250,11.22,"inhibitor, single point"
CN(C)CCOc1ccc(/C(=C(/CCCl)c2ccccc2)c2ccccc2)cc1,7G8,12.59,"inhibitor, single point"
CN(C)CCOc1ccc(/C(=C(/CCCl)c2ccccc2)c2ccccc2)cc1,DIV14,6.012,"inhibitor, partial curve"
CN(C)CCOc1ccc(/C(=C(/CCCl)c2ccccc2)c2ccccc2)cc1,GB4,7.569,"inhibitor, partial curve, poor fit"
CN(C)CCOc1ccc(/C(=C(/CCCl)c2ccccc2)c2ccccc2)cc1,ATS95,17.78,"inhibitor, single point"
CN(C)CCOc1ccc(/C(=C(/CCCl)c2ccccc2)c2ccccc2)cc1,DIV17,12,"inhibitor, single point"
CN(C)CCOc1ccc(/C(=C(/CCCl)c2ccccc2)c2ccccc2)cc1,PC15,0.5012,"inhibitor, full curve"
CCCCCCCCNC(C)C(O)c1ccc(SC(C)C)cc1 (stereo unspecified),N140,0.1585,"inhibitor, full curve, poor fit"
CCCCCCCCNC(C)C(O)c1ccc(SC(C)C)cc1 (stereo unspecified),CP297,1.51,activator
C[C@]12CC[C@H](O)CC1=CCC1C2CC[C@]2(C)C(=O)CC[C@@H]12 (stereo partly specified),DIV30,12,"inhibitor, partial curve"
C[C@]12CC[C@H](O)CC1=CCC1C2CC[C@]2(C)C(=O)CC[C@@H]12 (stereo partly specified),PC26,19.01,"inhibitor, single point"
C[C@]12CC[C@H](O)CC1=CCC1C2CC[C@]2(C)C(=O)CC[C@@H]12 (stereo partly specified),CP325,16.94,"inhibitor, single point"
C[C@]12CC[C@H](O)CC1=CCC1C2CC[C@]2(C)C(=O)CC[C@@H]12 (stereo partly specified),CP266,0.0151,"inhibitor, full curve, poor fit"
C[C@]12CC[C@H](O)CC1=CCC1C2CC[C@]2(C)C(=O)CC[C@@H]12 (stereo partly specified),CP329,19.01,"inhibitor, single point"
C[C@]12CC[C@H](O)CC1=CCC1C2CC[C@]2(C)C(=O)CC[C@@H]12 (stereo partly specified),DIV14,19.01,"inhibitor, single point"
C[C@]12CC[C@H](O)CC1=CCC1C2CC[C@]2(C)C(=O)CC[C@@H]12 (stereo partly specified),CP291,19.01,"inhibitor, single point"
C[C@]12CC[C@H](O)CC1=CCC1C2CC[C@]2(C)C(=O)CC[C@@H]12 (stereo partly specified),CP268,19.01,"inhibitor, single point"
C[C@]12CC[C@H](O)CC1=CCC1C2CC[C@]2(C)C(=O)CC[C@@H]12 (stereo partly specified),CP192,19.01,"inhibitor, single point"
C[C@]12CC[C@H](O)CC1=CCC1C2CC[C@]2(C)C(=O)CC[C@@H]12 (stereo partly specified),CP203,19.01,"inhibitor, single point"
C[C@]12CC[C@H](O)CC1=CCC1C2CC[C@]2(C)C(=O)CC[C@@H]12 (stereo partly specified),CP269,15.1,"inhibitor, single point"
C[C@]12CC[C@H](O)CC1=CCC1C2CC[C@]2(C)C(=O)CC[C@@H]12 (stereo partly specified),CP305,12,"inhibitor, single point"
C[C@]12CC[C@H](O)CC1=CCC1C2CC[C@]2(C)C(=O)CC[C@@H]12 (stereo partly specified),CP211,15.1,"inhibitor, single point"
C[C@]12CC[C@H](O)CC1=CCC1C2CC[C@]2(C)C(=O)CC[C@@H]12 (stereo partly specified),CP201,19.01,"inhibitor, single point"
C[C@]12CC[C@H](O)CC1=CCC1C2CC[C@]2(C)C(=O)CC[C@@H]12 (stereo partly specified),DIV17,13.46,"inhibitor, single point"
C[C@]12CC[C@H](O)CC1=CCC1C2CC[C@]2(C)C(=O)CC[C@@H]12 (stereo partly specified),CP315,19.01,"inhibitor, single point"
C[C@]12CC[C@H](O)CC1=CCC1C2CC[C@]2(C)C(=O)CC[C@@H]12 (stereo partly specified),GB4,13.46,"inhibitor, single point"
C[C@]12CC[C@H](O)CC1=CCC1C2CC[C@]2(C)C(=O)CC[C@@H]12 (stereo partly specified),CP215,19.01,"inhibitor, single point"
C[C@]12CC[C@H](O)CC1=CCC1C2CC[C@]2(C)C(=O)CC[C@@H]12 (stereo partly specified),7G8,17.78,"inhibitor, single point"
C[C@]12CC[C@H](O)CC1=CCC1C2CC[C@]2(C)C(=O)CC[C@@H]12 (stereo partly specified),CP194,16.94,"inhibitor, single point"
COC(=O)C1=C(C)NC(C)=C(C(=O)OCCCN2CCC(c3ccccc3)(c3ccccc3)CC2)C1c1cccc([N+](=O)[O-])c1 (stereo unspecified),JCK,17.78,"inhibitor, single point"
COC(=O)C1=C(C)NC(C)=C(C(=O)OCCCN2CCC(c3ccccc3)(c3ccccc3)CC2)C1c1cccc([N+](=O)[O-])c1 (stereo unspecified),CP192,4.776,"inhibitor, partial curve, poor fit"
COC(=O)C1=C(C)NC(C)=C(C(=O)OCCCN2CCC(c3ccccc3)(c3ccccc3)CC2)C1c1cccc([N+](=O)[O-])c1 (stereo unspecified),FAB9,17.78,"inhibitor, single point"
COC(=O)C1=C(C)NC(C)=C(C(=O)OCCCN2CCC(c3ccccc3)(c3ccccc3)CC2)C1c1cccc([N+](=O)[O-])c1 (stereo unspecified),PC49,10,activator
NC(=O)Oc1ccc(Cc2ccccc2)cc1,7G8,8.912,"inhibitor, partial curve, poor fit"
NC(=O)Oc1ccc(Cc2ccccc2)cc1,CP291,0.0013,inhibitor
Cc1sc2ccccc2c1CC1=NCCN1,DIV17,19.01,"inhibitor, single point"
Cc1sc2ccccc2c1CC1=NCCN1,CP237,10,"inhibitor, single point"
Cc1sc2ccccc2c1CC1=NCCN1,CP297,6.012,"inhibitor, partial curve"
Cc1sc2ccccc2c1CC1=NCCN1,GB4,10.69,"inhibitor, partial curve"
Cc1sc2ccccc2c1CC1=NCCN1,DIV14,9.528,"inhibitor, partial curve"
Cc1sc2ccccc2c1CC1=NCCN1,CP286,11.22,"inhibitor, single point"

Once more, the final 5:

- Cc1sc2ccccc2c1CC1=NCCN1 [CP237] | potency 10 µM (inhibitor, single point)
- Cc1sc2ccccc2c1CC1=NCCN1 [CP297] | potency 6.012 µM (inhibitor, partial curve)
- Cc1sc2ccccc2c1CC1=NCCN1 [GB4] | potency 10.69 µM (inhibitor, partial curve)
- Cc1sc2ccccc2c1CC1=NCCN1 [DIV14] | potency 9.528 µM (inhibitor, partial curve)
- Cc1sc2ccccc2c1CC1=NCCN1 [CP286] | potency 11.22 µM (inhibitor, single point)

Source: PubChem BioAssay AID504749 (NCATS, 2011).